Test results from article doi:10.1101/2024.09.18.613669.
For at least one entry, the source does not settle the construct or the ends of the probe. For part of these data: At least one verdict was read from the data and is not stated in words by the source.

Tests used:
Assay in all cases: EMSA
[1] = system: ETV5 + FUS + MEF2A; conditions: FUS 300 nM, MEF2A 50 nM, ETV5 60-240 nM, FUS and MEF2A increase ETV5 binding
[2] = system: ETV1 + FUS + MEF2A; conditions: FUS 300 nM, MEF2A 50 nM, ETV1 120 nM, similar to ETV5
[3] = system: ETV5; conditions: ETV5 60-240 nM, probe 5 nM

Measured: binding result

TTTTAACGGCGTGGTTTGAATGTTGCACTGGGTCCACCTGCCTCTGTCTCCGGCTGCGGGGACGTTCGGA (double strand) [MRPL30 probe WT]
binds: all assays above
